For the experiment, the system named is heat induced tail flicking latency. As to the kind of experiment: Tail immersion test. The experiment is classed as in vivo. The settings on record: 10 mg/kg oral, mice. As for the experimental part:
Group I: Control, Group II-XV: WE-1 to WE-7 (sample compounds) at dose of 10 mg/kg and 20 mg/kg and Group XVI: Standard. The control (Group I) was given normal saline. Group II-XV received 10 mg/kg and 20 mg/kg of test sample (WE-1 to WE-7).
The cut-off time was set at 25 s, and the time taken for the mice to flick their tails out of the water was recorded at 30, 60, 90, and 120-min intervals. An increase in the time of tail immersion was compared to the control group to determine the analgesic effect of the tested drugs. The percentage of inhibition was calculated at the time interval showing the highest effect.

For `COc1cccc(C2(O)CCCCC2CN(C)C)c1` (stereo not shown) [Tramadol, reference compound], the “percentage inhibition of pain, tail immersion” value is on record as 80.57%.
